Literature values as cited in PMC6639268 (Journal of Virology, 2019).

System: EBOV
Conditions: read-out: IC50, inhibition of EBOV; cited from earlier work

In the case of `CN1[C@@H]2CC[C@H]1C[C@@H](OC(c1ccccc1)c1ccccc1)C2` [benztropine], the IC50 is listed as 3.7 µM.
